Results published in patent publication US20190194268A1 (DONALD DANFORTH PLANT SCIENCE CENTER, published 2019).
Entries after “also recorded” stand apart in the source; their conditions may differ.

Experiment: transmission electron microscopy of cross-linked protein complex
Settings: TEM, with or without PIP, FIG. 20

B1: MtDef5FL1: Medicago truncatula protein with MtDef5 defensin peptides A and B connected by a 7-amino acid linker; SEQ ID NO:7, expressed in Pichia (protein, listed as Medicago truncatula)
chain: CQKRSTTWSGPCLNTGNCKRQCINVEHATFGACHRQGFGFACFCYKKCAPKKVEPKLCERRSKTWSGPCLISGNCKRQCINVEHATSGACHRQGIGFACFCKKKC
- formation of nanonet-like structures: Nanonet-like structures were observed only in the presence of PIP; also recorded: forms nanonet structures in presence of PIP
